Measured values: patent publication CN116675768A
No constants are given. Whether binding was seen depends on the method and setting. Some entries that bind do so weakly or less than the wild type. Values belong to the binder of their own block, whether it stands above or below them.

Target: T1, 重组人NEFL蛋白 (human) (UniProt P07196)
T1 sequence: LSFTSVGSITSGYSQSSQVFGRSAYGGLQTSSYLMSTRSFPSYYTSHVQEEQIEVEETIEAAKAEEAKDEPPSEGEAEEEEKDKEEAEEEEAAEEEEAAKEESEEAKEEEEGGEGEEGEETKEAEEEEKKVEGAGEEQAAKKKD
Experiment: double-antibody sandwich ELISA; 1H8 as capture, 2G10-biotin as detection, protein at 2000 pg/mL

binding: binds
B1: 兔单克隆抗体1H8 (antibody, V domains shown)
VH: QSLEESGGRLVTPGTPLTLTCAVSGIDLSRYGIDWVRQAPGKGLEWIGTVSAGGDSWYASWAKGRFTISKTSSTTVDLEVTSPTTEDTATYFCAKGATLNLWGQGTLVTVSS
VL: DPVLTQTPSSTSAAVGGTVTINCQSSQNVYGNNWLAWYQKKPGQSPKLLIISASSLPSGVPSRFKGSGSGTQFTLTISDLECDDAATYYCAGGYSGYIYTFGGGTEVVVKG

binding: binds
B2: 兔单克隆抗体2G10 (antibody, V domains shown)
VH: QSLEESGGRLVTPGTRLTLTCTVSGFSLGRYAMGWVRQAPGKGLEWIGIINSYGTTYYASWAKGRFTISKTSTTVDLKITSPTTEDTATYFCARDGYEDYGDYYNAFDPWGPGTLVTVSS
VL: DVVMTQTPASVSEPVGGTVTIKCQASQSIGVTLAWYQQKPGQPPKLLIYKASNLASGVSSRFKGSRSGTEYTLTISDLECADAATYYCQCTWYGPSFVGAFGGGTEVVVKG
